Results deposited as PubChem BioAssay AID1224826 (NIAID, 2016).

- Screen: 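Genes that change LPS-induced Tnf promoter activity in mouse macrophages when knocked down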 (primary screen)
- Cell system: RAW264.7 G9 macrophages from mouse bearing reporters for p65 (GFP) and the Tnf promoter (mCherry)
- Knock-down reagent: siRNA pool against mouse genes, 100 nM
- Time to read-out: 16 h of LPS stimulation, after 2 days of siRNA transfection
- Conditions: bacterial lipopolysaccharide (Salmonella minnesota R595), 10 ng/ml
- Read-out: 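Nuclear mCherry signal of the Tnf promoter reporter measured by imaging after background removal, scaled to each plate median and turned into robust z-scores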
- Direction: Tnf reporter robust z-score: higher = stronger Tnf promoter reporter signal after LPS
- Hit rule: 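Called active when robust z-score is at most -1.3, matching the median of the Tlr4 knock-down control, or over 3; control wells and wells with under 50 cells never active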
- Meaning of the calls: active = Tnf reporter clearly lowered or raised; inactive = no clear change in Tnf reporter
In all, the deposit lists about 17,000 reagents; this is a part drawn at random. In the full data, about 1,110 (6.6%) got an active call. 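Active means lowered or raised reporter signal; replicate intensities are raw and not normalised per plate.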 Reagents against one gene are numbered here. Not all columns of the deposit are shown.

Tmem198b
- Tnf reporter robust z-score: 2.35
- fewer than 50 cells in well: enough cells in well
- Call: inactive

Il15ra
- Tnf reporter robust z-score: -0.5
- fewer than 50 cells in well: enough cells in well
- Call: inactive

Rgs10
- Tnf reporter robust z-score: 2.26
- fewer than 50 cells in well: enough cells in well
- Call: inactive

Or13ae2
- Tnf reporter robust z-score: -0.77
- fewer than 50 cells in well: enough cells in well
- Call: inactive

Kcmf1
- Tnf reporter robust z-score: -0.43
- fewer than 50 cells in well: enough cells in well
- Call: inactive

Trappc3
- Tnf reporter robust z-score: 0.92
- fewer than 50 cells in well: enough cells in well
- Call: inactive

Tm6sf1
- Tnf reporter robust z-score: -0.57
- fewer than 50 cells in well: enough cells in well
- Call: inactive

Gadd45a
- Tnf reporter robust z-score: -0.28
- fewer than 50 cells in well: enough cells in well
- Call: inactive

Papss2
- Tnf reporter robust z-score: 0.72
- fewer than 50 cells in well: enough cells in well
- Call: inactive

Abhd14b
- Tnf reporter robust z-score: 1.71
- fewer than 50 cells in well: enough cells in well
- Call: inactive

Znf41-ps
- Tnf reporter robust z-score: 2.22
- fewer than 50 cells in well: enough cells in well
- Call: inactive

Vps37b
- Tnf reporter robust z-score: 0.71
- fewer than 50 cells in well: enough cells in well
- Call: inactive

Atf7ip #1
- Tnf reporter robust z-score: -0.24
- fewer than 50 cells in well: enough cells in well
- Call: inactive

Atf7ip #2
- Tnf reporter robust z-score: -0.08
- fewer than 50 cells in well: enough cells in well
- Call: inactive

Cbln4
- Tnf reporter robust z-score: 2.29
- fewer than 50 cells in well: enough cells in well
- Call: inactive

Crtac1
- Tnf reporter robust z-score: -0.12
- fewer than 50 cells in well: enough cells in well
- Call: inactive

Cit #1
- Tnf reporter robust z-score: 1.42
- fewer than 50 cells in well: enough cells in well
- Call: inactive

Cit #2
- fewer than 50 cells in well: fewer than 50 cells per well; well left out of calls
- Call: inactive

Zp1
- Tnf reporter robust z-score: 1.69
- fewer than 50 cells in well: enough cells in well
- Call: inactive

Fbxl6
- Tnf reporter robust z-score: -1.37
- fewer than 50 cells in well: enough cells in well
- Call: active

Bard1
- Tnf reporter robust z-score: 0.4
- fewer than 50 cells in well: enough cells in well
- Call: inactive

Reagents above marked active:
Fbxl6
- Tnf reporter robust z-score: -1.37
- fewer than 50 cells in well: enough cells in well
- Call: active
